Consider two sequences from patent US6409648, “Polynucleotides encoding TRF1 binding proteins” (The Regents of the University of California).

Holding throughout (assay): EMSA
One series deals with T1, 6his-Tin2 (human) (UniProt Q9BSI4).
T1 sequence: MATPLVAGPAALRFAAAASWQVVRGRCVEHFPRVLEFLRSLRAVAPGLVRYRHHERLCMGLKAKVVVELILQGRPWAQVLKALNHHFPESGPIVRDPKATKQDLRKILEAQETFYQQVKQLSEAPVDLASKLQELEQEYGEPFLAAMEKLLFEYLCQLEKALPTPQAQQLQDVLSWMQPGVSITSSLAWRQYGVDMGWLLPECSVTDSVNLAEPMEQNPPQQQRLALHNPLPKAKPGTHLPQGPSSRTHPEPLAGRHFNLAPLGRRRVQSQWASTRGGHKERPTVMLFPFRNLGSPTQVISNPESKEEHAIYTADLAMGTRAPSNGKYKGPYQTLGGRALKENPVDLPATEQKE
The settings on record: purified recombinant protein, protein details: 6his, baculovirus/Sf9.

A further series deals with T2, GST-Tin2 (human) (UniProt Q9BSI4).
T2 sequence: T1 sequence
The settings on record: Tin2 alone; purified recombinant protein; protein details: N-terminal GST, E. coli.

Series [1] has as its target T3, Tin2 (in vitro translated) (human) (UniProt Q9BSI4).
T3 sequence: T1 sequence
The settings on record: Tin2 alone; protein translated in vitro; protein details: N-terminal c-Myc epitope (13 aa).

The target in series [2] is T4, Trf1 (HA-Trf1, nuclear extract) (human) (UniProt P54274).
T4 sequence (looked up, limits assumed): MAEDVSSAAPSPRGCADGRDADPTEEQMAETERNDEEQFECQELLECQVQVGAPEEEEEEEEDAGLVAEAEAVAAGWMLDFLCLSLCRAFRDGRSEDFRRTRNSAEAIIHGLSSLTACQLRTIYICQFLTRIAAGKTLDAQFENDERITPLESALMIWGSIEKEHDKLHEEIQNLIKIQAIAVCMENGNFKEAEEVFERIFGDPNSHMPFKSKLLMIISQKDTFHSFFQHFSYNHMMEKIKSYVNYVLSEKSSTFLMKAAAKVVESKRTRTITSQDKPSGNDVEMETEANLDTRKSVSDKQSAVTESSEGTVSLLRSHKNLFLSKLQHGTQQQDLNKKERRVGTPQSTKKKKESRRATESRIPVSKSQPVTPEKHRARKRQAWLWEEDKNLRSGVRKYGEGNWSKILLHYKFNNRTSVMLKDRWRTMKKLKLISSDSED
Conditions: complex TT, Trf1 homodimer; protein in an extract.

For series [3], the system named is Trf1 + GST-Tin2 complex (human). Conditions: TT shifted to TT-AA and TT-AAX; protein in an extract; protein details: HA-Trf1 nuclear extract, N-terminal GST on Tin2.
In series [4] the test system is Trf1 + GST-Tin2-12 complex (human). The settings on record: TT shifted to TT-A and TT-AA, less efficient than Tin2-13; protein in an extract; protein details: HA-Trf1 nuclear extract, N-terminal GST on Tin2-12.
Series [5] concerns Trf1 + GST-Tin2-13 complex (human). Conditions: TT shifted to TT-A and TT-AA; protein in an extract; protein details: HA-Trf1 nuclear extract, N-terminal GST on Tin2-13.
For series [6], the system named is Trf1 + GST-Tin2-14 complex (human). Conditions: TT shifted to TT-A and TT-AA, less efficient than Tin2-13; some TT-AAX; protein in an extract; protein details: HA-Trf1 nuclear extract, N-terminal GST on Tin2-14.

For part of these data: At least one result comes from cells or an extract, where the contact may be indirect. For part of these data: Where a protein sequence is shown, tags need not be part of it. For part of these data: The exact form of at least one protein or probe is not confirmed. For part of these data: Negatives hold for the conditions tested.

With “TTAGGGTTAGGGTTAGGGTTAGGGTTAGGGTTAGGGTTAGGGTTAGGGTTAGGGTTAGGGTTAGGGTTAGGGTTAGGG (double strand) [[TTAGGG]13 double-stranded telomeric probe]”, the binding result in the series with 6his-Tin2 (human) (Tin2 alone) was “no binding”; in the series with GST-Tin2 (human) it was “no binding”; in series [1], “no binding”; in series [2], “binds”; in series [3], “binds”; in series [4], “binds”. The binding result in series [5] and in series [6] was “binds” in each case.

“TTAGGGTTAGGGTTAGGGTTAGGGTTAGGGTTAGGG (double strand)”: the binding result with 6his-Tin2 (human) (no complex with Tin2 alone, label: 32P (6X-Tel), 5' biotin (Bi-6X-Tel), only the site is given) is “no binding”.
